PubChem BioAssay AID493246 | Drosophila RNAi Screening Center | 2011

Screen: 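Identify essential fly genes by loss of cell viability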 (primary screen)
System: Drosophila Kc and S2R+ cells
Knock-down reagent: long dsRNA against Drosophila genes
Detection: 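Raw, unnormalised count of remaining cells in each well; per-plate z-scores of cell number underlie the calls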
Reading the numbers: Kc cell number and S2R+ cell number: higher = more cells remaining
Hit rule: 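Counted as a hit if cell number falls by a z-score of at least 3 within its plate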
The deposit covers about 21,000 reagents; shown is an unselected part of those with a known target gene and a result. Over the whole deposit, 429 (2%) got an active call. 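Values are raw and not normalised between plates; calls rest on per-plate z-scores that were not deposited.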 Unmarked entries are inactive. A plus sign joins genes that one reagent is predicted to hit. Not given: the amount of reagent, the time to read-out.

gene,amplicon,"Kc cell number, rep 1","Kc cell number, rep 2","S2R+ cell number, rep 1","S2R+ cell number, rep 2"
Sdhaf3 (Succinate dehydrogenase assembly factor 3),DRSC15020,1.45e6,1.41e6,9.52e5,1.10e6
if (inflated),DRSC20341,1.79e6,1.85e6,1.13e6,1.28e6
trr (trithorax-related),DRSC18845,4.73e5,,6.33e5,
CG31406,DRSC12777,1.33e6,1.52e6,1.00e6,1.24e6
ng1 (new glue 1),DRSC18802,1.50e6,1.49e6,1.00e6,1.22e6
Ncc69 (sodium chloride cotransporter 69),DRSC10412,1.50e6,1.53e6,1.31e6,1.29e6
Ncc69 (sodium chloride cotransporter 69),DRSC10413,1.91e6,2.09e6,1.31e6,1.42e6
CG42843 (retired record),DRSC01118,1.40e6,1.51e6,1.02e6,1.11e6
CG42843 (retired record),DRSC02231,1.68e6,1.67e6,1.14e6,1.22e6
CG42843 (retired record),DRSC02233,1.49e6,1.55e6,1.18e6,1.27e6
Sec24CD (Secretory 24CD),DRSC00300,8.52e5,1.19e6,3.17e5,3.48e5
CG33964 + CG13175,DRSC06300,1.58e6,1.66e6,1.29e6,1.32e6
CG33964 + CG13175,DRSC06301,1.51e6,1.57e6,1.23e6,1.29e6
CG33964 + CG13175,DRSC07184,1.46e6,1.58e6,1.29e6,1.36e6
CG30259,DRSC04164,1.54e6,1.58e6,1.25e6,1.37e6
CG30259,DRSC04165,1.50e6,1.55e6,1.27e6,1.25e6
CG14062,DRSC14725,1.55e6,1.56e6,1.03e6,1.14e6
niki (nimA-like kinase),DRSC14285,1.68e6,1.57e6,9.83e5,1.11e6
Ts (Thymidylate synthase),DRSC00795,1.65e6,1.65e6,1.13e6,1.31e6
CG14589,DRSC04866,1.53e6,1.61e6,1.35e6,1.44e6
CG6805,DRSC07011,1.43e6,1.47e6,1.18e6,1.23e6
CG6912,DRSC16132,1.31e6,1.47e6,1.21e6,1.39e6
dmrt99B (doublesex-Mab related 99B),DRSC15045,1.28e6 (active),1.30e6,5.51e5,6.04e5
SpdS (Spermidine Synthase),DRSC16408,1.41e6,1.48e6,1.19e6,1.27e6
Zmynd8 (Zinc finger MYND-type containing 8),DRSC15310,4.76e5,,7.69e5,
CG12964,DRSC06266,1.72e6,1.73e6,1.23e6,1.41e6
CG8323,DRSC07149,1.83e6,1.79e6,1.28e6,1.45e6
Mst84B (Male-specific transcript 84B),DRSC12579,1.42e6,1.61e6,1.24e6,1.36e6
Cyp309a2 (Cytochrome P450 309a2),DRSC00526,1.85e6,1.83e6,1.11e6,1.23e6
zye,DRSC11784,1.40e6,1.38e6,1.30e6,1.38e6
Gr39a (Gustatory receptor 39a),DRSC01841,5.50e5,,8.82e5,
Gr39a (Gustatory receptor 39a),DRSC01842,5.59e5,,8.76e5,
CG15831 (retired record),DRSC20816,1.56e6,1.61e6,1.12e6,1.22e6
CG16741,DRSC06622,1.76e6,1.76e6,1.16e6,1.40e6
CG6873,DRSC20014,1.56e6,1.63e6,8.45e5,9.74e5
Usp32 (Ubiquitin specific protease 32),DRSC10979,1.36e6,1.68e6,1.25e6,1.34e6
CG42633,DRSC16061,1.49e6,1.46e6,1.28e6,1.33e6
CG13218,DRSC06340,1.60e6,1.59e6,1.27e6,1.37e6
cg (combgap),DRSC07650,5.28e5 (active),5.71e5,4.15e5,5.35e5
DIP2 (DISCO Interacting Protein 2),DRSC08582,1.28e6,1.34e6,1.18e6,1.25e6
CG43773,DRSC00287,1.72e6,1.71e6,1.12e6,1.28e6
CG43773,DRSC00288,1.65e6,1.59e6,1.27e6,1.47e6
tth (toothrin),DRSC19435,4.21e5,,7.20e5,
Npl4 (Nuclear protein localization 4),DRSC15615,4.92e5,,6.59e5,
Npl4 (Nuclear protein localization 4),DRSC15616,1.54e6,1.50e6,1.00e6,1.09e6
RtGEF (Rho-type guanine nucleotide exchange factor),DRSC03604,1.72e6,1.91e6,1.38e6,3.78e5
Mctp (Multiple C2 domain and transmembrane region protein),DRSC06510,1.80e6,1.77e6,1.32e6,1.55e6
kel (kelch),DRSC03554,1.70e6,1.66e6,1.35e6,1.52e6
Ak6 (Adenylate kinase 6),DRSC07274,1.62e6,1.70e6,1.40e6,1.43e6
Oamb (Octopamine receptor in mushroom bodies),DRSC13433,1.68e6,1.70e6,1.07e6,1.16e6
Oamb (Octopamine receptor in mushroom bodies),DRSC15120,1.34e6,1.40e6,8.90e5,1.04e6
Oamb (Octopamine receptor in mushroom bodies),DRSC16763,1.38e6,1.50e6,1.01e6,1.06e6
t-cup (tetleys-cup),DRSC01254,1.60e6,1.71e6,1.15e6,1.29e6
oys (oysgedart),DRSC05203,1.46e6,1.57e6,7.70e5,9.23e5
oys (oysgedart),DRSC06751,1.27e6,1.32e6,1.10e6,1.19e6
CG9902,DRSC20212,1.57e6,1.56e6,1.06e6,1.15e6
CG4704,DRSC15628,1.83e6,1.69e6,1.01e6,1.17e6
CR33319 (pseudo),DRSC01826,5.97e5,,9.54e5,
CAH1 + Adat1,DRSC02009,1.24e6,1.38e6,1.10e6,1.07e6
SIFaR (SIFamide receptor),DRSC13467,1.52e6,1.48e6,1.08e6,1.05e6
SIFaR (SIFamide receptor),DRSC14266,1.49e6,1.44e6,1.11e6,1.19e6
CG14778,DRSC17953,1.49e6,1.49e6,9.87e5,1.08e6
heph (hephaestus),DRSC14082,1.50e6,1.81e6,1.04e6,1.15e6
heph (hephaestus),DRSC14085,1.60e6,1.65e6,1.06e6,1.08e6
heph (hephaestus),DRSC15436,1.47e6,1.43e6,9.27e5,8.95e5
heph (hephaestus),DRSC16783,1.47e6,1.47e6,9.63e5,1.04e6
P5cr-2 (Pyrroline-5-carboxylate reductase-like 2),DRSC15889,1.20e6,1.26e6,1.21e6,1.39e6
CG34210,DRSC04579,1.60e6,1.61e6,1.23e6,1.35e6
CG10943,DRSC09805,1.34e6,1.58e6,1.17e6,1.28e6
mthl4 (methuselah-like 4),DRSC06998,1.66e6,1.66e6,1.14e6,1.31e6
iotaTry (iotaTrypsin),DRSC07634,1.50e6,1.47e6,1.25e6,1.27e6
Flacc (Fl(2)d-associated complex component),DRSC20040,1.77e6,1.84e6,1.03e6,1.24e6
lmgA + lmgB,DRSC03566,1.58e6,1.60e6,1.22e6,1.42e6
Ddr (Discoidin domain receptor),DRSC00922,1.53e6,1.58e6,1.05e6,1.15e6
Ddr (Discoidin domain receptor),DRSC00923,1.43e6,1.47e6,1.04e6,1.14e6
Ddr (Discoidin domain receptor),DRSC02150,1.62e6,1.91e6,1.11e6,1.26e6
Ddr (Discoidin domain receptor),DRSC03229,1.67e6,1.74e6,1.12e6,1.30e6
Ddr (Discoidin domain receptor),DRSC03230,1.73e6,1.59e6,1.15e6,1.31e6

In a second layout: entries from further up
{"gene": "heph (hephaestus)", "amplicon": "DRSC14085", "Kc cell number, rep 1": 1.60e6, "Kc cell number, rep 2": 1.65e6, "S2R+ cell number, rep 1": 1.06e6, "S2R+ cell number, rep 2": 1.08e6}
{"gene": "heph (hephaestus)", "amplicon": "DRSC15436", "Kc cell number, rep 1": 1.47e6, "Kc cell number, rep 2": 1.43e6, "S2R+ cell number, rep 1": 9.27e5, "S2R+ cell number, rep 2": 8.95e5}
{"gene": "heph (hephaestus)", "amplicon": "DRSC16783", "Kc cell number, rep 1": 1.47e6, "Kc cell number, rep 2": 1.47e6, "S2R+ cell number, rep 1": 9.63e5, "S2R+ cell number, rep 2": 1.04e6}
{"gene": "P5cr-2 (Pyrroline-5-carboxylate reductase-like 2)", "amplicon": "DRSC15889", "Kc cell number, rep 1": 1.20e6, "Kc cell number, rep 2": 1.26e6, "S2R+ cell number, rep 1": 1.21e6, "S2R+ cell number, rep 2": 1.39e6}
{"gene": "CG34210", "amplicon": "DRSC04579", "Kc cell number, rep 1": 1.60e6, "Kc cell number, rep 2": 1.61e6, "S2R+ cell number, rep 1": 1.23e6, "S2R+ cell number, rep 2": 1.35e6}
{"gene": "CG10943", "amplicon": "DRSC09805", "Kc cell number, rep 1": 1.34e6, "Kc cell number, rep 2": 1.58e6, "S2R+ cell number, rep 1": 1.17e6, "S2R+ cell number, rep 2": 1.28e6}
